Source: patent US9750789B2, “Use of matrix metalloproteinase inhibitors to treat tuberculosis” (priority 2011, dated 2017)
For at least one compound, name, drawing or mass did not settle the structure.

Key:
MMP-1 = MMP-1 secretion from primary human bronchial epithelial cells stimulated by CoMtb; assay type: cell-based
MMP-9 [1] = test: Gelatin zymography of MMP-9 activity in epithelial cell culture supernatants
M. tuberculosis = assay type: in vivo, guinea pig
MMP-1 promoter = MMP-1 promoter activity in transiently transfected A549 cells stimulated by CoMtb; conditions: full-length MMP-1 promoter
bioluminescent Mtb = assay type: cell-based, Mycobacterium tuberculosis; conditions: from MBC/MIC ratio
MMP-9 [2] = test: MMP-9 secretion from primary human bronchial epithelial cells stimulated by CoMtb; assay type: cell-based

Structure (SMILES): C[C@H]1c2cccc(O)c2C(=O)C2=C(O)[C@]3(O)C(=O)C(C(N)=O)=C(O)[C@@H](N(C)C)[C@@H]3[C@@H](O)[C@@H]21 [Doxycycline, doxycycline]
- MMP-1 secretion (MMP-1): suppressed
- total MMP-9 activity (MMP-9 [1]): reduced
- area of granulomatous involvement of the lung, effect independent of CFU (M. tuberculosis; digital image analysis, guinea pigs): no independent effect
- MMP-1, -8, -9, -13 and TNF-α expression in lung tissue (quantitative PCR) (M. tuberculosis; guinea pig, in vivo): did not show any difference
- lung colony forming units (M. tuberculosis; guinea pigs, doxycycline monotherapy 5 or 20 mg/kg, at 10 weeks, dose-dependent): suppressed
- MMP-1 promoter activity (MMP-1 promoter): suppressed
- type of antibiotic action on Mtb growth (bioluminescent Mtb): bacteriostatic
- MMP-9 secretion (MMP-9 [2]): suppressed
